Data source: PubChem BioAssay AID504793 (Drosophila RNAi Screening Center, 2011)
Purpose: 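Genes required for cells to halt at G2/M after double-strand DNA breaks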 (primary screen). System: Drosophila S2R+ cells. Knock-down reagent: long dsRNA against Drosophila genes, about 0.25 µg dsRNA per well. Time to read-out: 4 days of dsRNA, then 4 hours of drug before read-out. Treatment: doxorubicin 0.5 µM for 4 hours to cause double-strand breaks, in cells also given a low, harmless dose of dsRNA against nbs to sensitise the assay. Detection: 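Per-well count of mitotic cells stained for phospho-histone H3 after doxorubicin exposure, used as mitotic index; counts are raw and not normalised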. Direction: mitotic cells: higher = more cells in mitosis, weaker G2 arrest. Rule for the call: 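a call needs confirmation in secondary tests, with other dsRNAs and a check of mitotic timing without damage, not just a high primary count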. Calls: active = confirmed in follow-up tests; inactive = not confirmed.
In all, the deposit lists about 23,000 reagents; shown is an unselected part of those that have a named target and a result. Over the whole deposit, 62 (0.27%) are marked active. 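Calls come from follow-up tests whose scores are not deposited, so confirmed genes may have low counts here; counts are not normalised per plate.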 Raw values are not corrected between plates. Unmarked entries are inactive. Names joined by + are all predicted targets of the reagent. Reagent sequences are not shown.

no.	predicted target	dsRNA	mitotic cells, replicate 1
1	vkg (GeneID 33726)	DRSC03632	9
2	shps (GeneID 42892)	DRSC14614	11
3	CG3999 (GeneID 41253)	DRSC15534	3
4	CG3999 (GeneID 41253)	DRSC29444	11
5	Manf (GeneID 41983)	DRSC14091	5
6	CG14891 (GeneID 42013)	DRSC15013	10
7	CG14572 (GeneID 40422)	DRSC11733	16
8	CG13198 (GeneID 36245)	DRSC06323	5
9	CCHa1-R (GeneID 37004)	DRSC06456	2
10	CCHa1-R (GeneID 37004)	DRSC06715	3
11	witty (GeneID 34145)	DRSC02378	10
12	witty (GeneID 34145)	DRSC21650	7
13	witty (GeneID 34145)	DRSC26154	5
14	ORMDL (GeneID 40404)	DRSC11737	12
15	ORMDL (GeneID 40404)	DRSC27778	6
16	CG8501 (GeneID 36347)	DRSC07198	6
17	TTLL3B (GeneID 33946)	DRSC02133	1
18	comm (GeneID 39717)	DRSC11336	12
19	comm (GeneID 39717)	DRSC24259	7
20	Hem (GeneID 40462)	DRSC11865	9
21	Sox100B (GeneID 45039)	DRSC15090	14
22	Sox100B (GeneID 45039)	DRSC23485	4
23	mus304 (GeneID 40003)	DRSC11372	22 (active)
24	ebd2 (GeneID 40363)	DRSC11682	5
25	ebd2 (GeneID 40363)	DRSC28502	6
26	CG9945 (GeneID 37329)	DRSC07347	7
27	CG9945 (GeneID 37329)	DRSC28885	6
28	CG32473 (GeneID 41636)	DRSC14352	2
29	CG32473 (GeneID 41636)	DRSC16446	9
30	PAN3 (GeneID 38369)	DRSC08190	7
31	PAN3 (GeneID 38369)	DRSC25366	7
32	lncRNA:CR31044 (GeneID 10178917)	DRSC22451	7
33	lncRNA:CR31044 (GeneID 10178917)	DRSC25989	8
34	TrpRS-m (GeneID 39989)	DRSC10848	6
35	CG32206 (GeneID 40105)	DRSC10094	4
36	CG32206 (GeneID 40105)	DRSC10095	1
37	CG32206 (GeneID 40105)	DRSC10096	2
38	CG32206 (GeneID 40105)	DRSC11080	6
39	Mal-A3 (GeneID 35826)	DRSC07462	5
40	Mal-A3 (GeneID 35826)	DRSC28752	3
41	ATP8B (GeneID 41469)	DRSC14961	7
42	Fancl (GeneID 41231)	DRSC14550	3
43	RpL40 (GeneID 33629)	DRSC00782	3
44	pirk (GeneID 37468)	DRSC04269	6
45	Lnk (GeneID 43130)	DRSC16729	4
46	CG12301 (GeneID 39689)	DRSC09875	6
47	Ccdc58 + CG34116	DRSC10105	5
48	hdly (GeneID 42478)	DRSC15849	6
49	CG32199 (GeneID 40028)	DRSC09990	6
50	CG10750 (GeneID 35206)	DRSC02105	8
51	CG10750 (GeneID 35206)	DRSC29624	5
52	CG32228 (GeneID 326202)	DRSC22296	11
53	elg1 (GeneID 39770)	DRSC10229	7
54	elg1 (GeneID 39770)	DRSC27844	6
55	Syn1 (GeneID 40424)	DRSC11803	1
56	Syn1 (GeneID 40424)	DRSC11804	7
57	Syn1 (GeneID 40424)	DRSC30039	8
58	825-Oak + CG32214 + CG32213	DRSC27977	8
59	Gem2 (GeneID 40087)	DRSC09721	6
60	Balat (GeneID 36417)	DRSC06852	9

15 successive records from above, for reference:
no.	predicted target	dsRNA	mitotic cells, replicate 1
28	CG32473 (GeneID 41636)	DRSC14352	2
29	CG32473 (GeneID 41636)	DRSC16446	9
30	PAN3 (GeneID 38369)	DRSC08190	7
31	PAN3 (GeneID 38369)	DRSC25366	7
32	lncRNA:CR31044 (GeneID 10178917)	DRSC22451	7
33	lncRNA:CR31044 (GeneID 10178917)	DRSC25989	8
34	TrpRS-m (GeneID 39989)	DRSC10848	6
35	CG32206 (GeneID 40105)	DRSC10094	4
36	CG32206 (GeneID 40105)	DRSC10095	1
37	CG32206 (GeneID 40105)	DRSC10096	2
38	CG32206 (GeneID 40105)	DRSC11080	6
39	Mal-A3 (GeneID 35826)	DRSC07462	5
40	Mal-A3 (GeneID 35826)	DRSC28752	3
41	ATP8B (GeneID 41469)	DRSC14961	7
42	Fancl (GeneID 41231)	DRSC14550	3

The list goes on:
no.	predicted target	dsRNA	mitotic cells, replicate 1
61	Sr-CIV (GeneID 33576)	DRSC00575	5
62	Sr-CIV (GeneID 33576)	DRSC24930	13
63	HP1b (GeneID 31834)	DRSC18418	9
64	HP1b (GeneID 31834)	DRSC29826	14
65	Gr43a (GeneID 35655)	DRSC06658	1
66	Pi3K92E (GeneID 42446)	DRSC16788	7
67	CG31226 (GeneID 318633)	DRSC21724	2
68	brun (GeneID 35325)	DRSC02706	3
69	Oatp33Ea (GeneID 34660)	DRSC02859	3
70	Oatp33Ea (GeneID 34660)	DRSC26461	9
71	CG5447 (GeneID 43192)	DRSC15801	7
72	CG5447 (GeneID 43192)	DRSC26407	7
73	CG15533 (GeneID 43612)	DRSC15069	7
74	CG15533 (GeneID 43612)	DRSC30031	6
75	Zw10 (GeneID 47874)	DRSC18793	4
76	Zw10 (GeneID 47874)	DRSC25620	3
77	CG12684 (GeneID 31390)	DRSC17875	10
78	Acp26Aa (GeneID 33817)	DRSC01855	7
79	Obp56e (GeneID 37267)	DRSC07188	4
80	CG31937 (GeneID 326177)	DRSC00514	3
81	vig (GeneID 34885)	DRSC03630	5
82	vig (GeneID 34885)	DRSC21672	11
83	CG8861 (GeneID 41109)	DRSC12731	6
84	CG8861 (GeneID 41109)	DRSC16449	7
85	nec (GeneID 45908)	DRSC06769	2
86	Prm (GeneID 39002)	DRSC08941	11
87	Prm (GeneID 39002)	DRSC08942	7
88	Prm (GeneID 39002)	DRSC11255	16
89	Prm (GeneID 39002)	DRSC26929	6
90	CG15571 (GeneID 31365)	DRSC18059	13
91	CG15571 (GeneID 31365)	DRSC30098	12
92	Galphas (GeneID 37805)	DRSC04616	5
93	GstE5 (GeneID 37110)	DRSC06675	4
94	CG17784 (GeneID 42909)	DRSC15268	17
95	CG13285 (GeneID 38623)	DRSC09960	6
96	Abi (GeneID 41718)	DRSC14099	13
97	Abi (GeneID 41718)	DRSC27275	5
98	Smu1 (GeneID 42272)	DRSC15803	5
99	Snap24 (GeneID 41193)	DRSC16864	1
100	Tssk (GeneID 42233)	DRSC14784	9
101	Tssk (GeneID 42233)	DRSC26679	9
102	Sry-delta (GeneID 43572)	DRSC24964	1
103	Mlc-c (GeneID 31474)	DRSC18683	7
104	Mlc-c (GeneID 31474)	DRSC26543	9
105	CG15772 (GeneID 31498)	DRSC18078	12
106	CG15357 (GeneID 50192)	DRSC00387	3
107	CG5327 (GeneID 37138)	DRSC06930	5
108	pico (GeneID 33003)	DRSC19430	9
109	Gfat1 (GeneID 3354921)	DRSC21219	8
110	Gfat1 (GeneID 3354921)	DRSC29612	6
